Data from the supplement of paper PMC10849652.
This is one part of the list.

By UniProt entry, the sequences of proteins in these tests, tags left out. Where a name states a change or a piece, a line headed by the entry shows the natural chain unless it says otherwise.
PIGBOS1, A0A0B4J2F0, UniProt A0A0B4J2F0, whole entry, looked up: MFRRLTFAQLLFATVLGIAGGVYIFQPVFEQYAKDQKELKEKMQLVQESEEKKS
UniProt Q9H5I5: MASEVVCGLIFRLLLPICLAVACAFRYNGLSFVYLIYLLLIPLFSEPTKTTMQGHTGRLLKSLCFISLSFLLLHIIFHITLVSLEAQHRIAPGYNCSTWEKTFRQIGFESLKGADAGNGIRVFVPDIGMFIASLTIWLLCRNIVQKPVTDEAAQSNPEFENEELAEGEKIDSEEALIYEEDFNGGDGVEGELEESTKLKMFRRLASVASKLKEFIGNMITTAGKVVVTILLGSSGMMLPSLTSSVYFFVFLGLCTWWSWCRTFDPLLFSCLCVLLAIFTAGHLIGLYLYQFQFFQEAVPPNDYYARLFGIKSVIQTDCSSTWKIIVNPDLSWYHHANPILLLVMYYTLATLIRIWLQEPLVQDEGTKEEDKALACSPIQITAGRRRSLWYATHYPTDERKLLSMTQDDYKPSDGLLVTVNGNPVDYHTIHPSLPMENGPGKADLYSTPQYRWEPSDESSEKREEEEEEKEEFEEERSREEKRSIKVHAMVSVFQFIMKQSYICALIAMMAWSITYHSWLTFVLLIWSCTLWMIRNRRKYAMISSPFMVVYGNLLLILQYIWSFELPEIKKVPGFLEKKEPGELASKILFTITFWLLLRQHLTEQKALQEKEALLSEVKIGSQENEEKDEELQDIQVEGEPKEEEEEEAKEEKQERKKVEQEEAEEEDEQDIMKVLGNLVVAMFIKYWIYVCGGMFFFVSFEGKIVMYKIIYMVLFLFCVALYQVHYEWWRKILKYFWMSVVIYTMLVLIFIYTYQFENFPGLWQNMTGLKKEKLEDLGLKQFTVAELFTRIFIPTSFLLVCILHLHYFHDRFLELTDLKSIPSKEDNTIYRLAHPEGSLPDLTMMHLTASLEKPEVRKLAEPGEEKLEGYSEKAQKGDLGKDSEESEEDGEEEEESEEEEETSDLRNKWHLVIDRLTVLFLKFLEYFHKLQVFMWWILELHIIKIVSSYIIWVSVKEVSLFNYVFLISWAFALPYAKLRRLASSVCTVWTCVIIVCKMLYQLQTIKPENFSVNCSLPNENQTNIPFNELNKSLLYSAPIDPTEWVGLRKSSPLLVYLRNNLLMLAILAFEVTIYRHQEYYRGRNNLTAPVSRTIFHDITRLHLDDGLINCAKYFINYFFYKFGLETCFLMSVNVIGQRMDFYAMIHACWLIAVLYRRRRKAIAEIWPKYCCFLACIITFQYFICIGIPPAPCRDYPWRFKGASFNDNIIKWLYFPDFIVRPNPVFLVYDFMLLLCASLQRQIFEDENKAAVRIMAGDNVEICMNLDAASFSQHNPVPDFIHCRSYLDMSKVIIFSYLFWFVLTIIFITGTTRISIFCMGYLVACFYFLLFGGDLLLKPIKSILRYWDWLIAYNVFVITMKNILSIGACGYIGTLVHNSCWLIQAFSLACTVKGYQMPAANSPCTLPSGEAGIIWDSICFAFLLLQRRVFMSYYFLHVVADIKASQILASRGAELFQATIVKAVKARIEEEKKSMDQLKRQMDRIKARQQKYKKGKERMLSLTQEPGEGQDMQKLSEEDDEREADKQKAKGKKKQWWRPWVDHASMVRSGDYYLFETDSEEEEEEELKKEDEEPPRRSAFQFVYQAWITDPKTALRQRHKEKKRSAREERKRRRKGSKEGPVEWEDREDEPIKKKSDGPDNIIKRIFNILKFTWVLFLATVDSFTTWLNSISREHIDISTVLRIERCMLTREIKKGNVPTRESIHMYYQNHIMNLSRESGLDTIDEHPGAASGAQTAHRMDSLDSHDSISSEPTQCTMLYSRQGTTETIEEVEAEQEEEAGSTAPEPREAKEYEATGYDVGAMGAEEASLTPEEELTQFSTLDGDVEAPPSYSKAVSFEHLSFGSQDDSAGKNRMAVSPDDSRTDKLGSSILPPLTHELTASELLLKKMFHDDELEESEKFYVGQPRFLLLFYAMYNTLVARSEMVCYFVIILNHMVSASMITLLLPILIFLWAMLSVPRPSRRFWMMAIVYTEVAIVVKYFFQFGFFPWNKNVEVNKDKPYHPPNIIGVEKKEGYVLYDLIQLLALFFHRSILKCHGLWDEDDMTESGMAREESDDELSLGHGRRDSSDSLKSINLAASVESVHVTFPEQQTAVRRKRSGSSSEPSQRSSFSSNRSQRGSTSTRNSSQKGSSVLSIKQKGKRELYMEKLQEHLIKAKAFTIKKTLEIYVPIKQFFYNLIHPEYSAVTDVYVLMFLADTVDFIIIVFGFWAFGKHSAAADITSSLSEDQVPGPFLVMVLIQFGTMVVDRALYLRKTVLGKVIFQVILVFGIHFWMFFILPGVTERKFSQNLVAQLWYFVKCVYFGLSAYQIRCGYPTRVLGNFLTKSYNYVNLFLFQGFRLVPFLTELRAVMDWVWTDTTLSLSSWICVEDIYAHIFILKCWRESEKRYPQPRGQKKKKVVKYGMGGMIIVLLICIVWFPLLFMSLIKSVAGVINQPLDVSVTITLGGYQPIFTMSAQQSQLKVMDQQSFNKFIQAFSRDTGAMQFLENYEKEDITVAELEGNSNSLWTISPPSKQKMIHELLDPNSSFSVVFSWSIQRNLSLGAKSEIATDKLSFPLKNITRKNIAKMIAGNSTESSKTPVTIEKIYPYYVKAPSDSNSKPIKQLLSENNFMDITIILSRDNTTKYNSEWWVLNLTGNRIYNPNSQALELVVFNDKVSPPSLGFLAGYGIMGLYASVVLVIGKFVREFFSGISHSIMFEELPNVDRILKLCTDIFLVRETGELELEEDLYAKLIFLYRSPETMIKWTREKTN
UniProt Q6NSJ2: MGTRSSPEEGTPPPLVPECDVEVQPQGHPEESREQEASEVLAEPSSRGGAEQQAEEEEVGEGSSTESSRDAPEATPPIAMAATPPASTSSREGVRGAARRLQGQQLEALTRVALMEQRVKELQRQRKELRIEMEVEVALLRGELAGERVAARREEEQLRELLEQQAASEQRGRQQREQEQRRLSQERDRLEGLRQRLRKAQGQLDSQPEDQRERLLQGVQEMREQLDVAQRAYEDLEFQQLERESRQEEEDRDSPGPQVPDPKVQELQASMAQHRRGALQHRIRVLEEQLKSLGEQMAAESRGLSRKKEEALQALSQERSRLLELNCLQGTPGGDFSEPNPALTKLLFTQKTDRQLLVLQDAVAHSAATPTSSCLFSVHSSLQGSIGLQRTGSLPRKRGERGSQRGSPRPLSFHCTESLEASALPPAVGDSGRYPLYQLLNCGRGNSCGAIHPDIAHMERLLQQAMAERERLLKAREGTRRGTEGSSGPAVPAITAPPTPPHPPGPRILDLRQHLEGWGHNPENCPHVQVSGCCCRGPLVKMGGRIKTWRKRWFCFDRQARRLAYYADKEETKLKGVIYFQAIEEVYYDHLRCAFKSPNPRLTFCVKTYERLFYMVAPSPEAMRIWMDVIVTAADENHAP
UniProt P36871: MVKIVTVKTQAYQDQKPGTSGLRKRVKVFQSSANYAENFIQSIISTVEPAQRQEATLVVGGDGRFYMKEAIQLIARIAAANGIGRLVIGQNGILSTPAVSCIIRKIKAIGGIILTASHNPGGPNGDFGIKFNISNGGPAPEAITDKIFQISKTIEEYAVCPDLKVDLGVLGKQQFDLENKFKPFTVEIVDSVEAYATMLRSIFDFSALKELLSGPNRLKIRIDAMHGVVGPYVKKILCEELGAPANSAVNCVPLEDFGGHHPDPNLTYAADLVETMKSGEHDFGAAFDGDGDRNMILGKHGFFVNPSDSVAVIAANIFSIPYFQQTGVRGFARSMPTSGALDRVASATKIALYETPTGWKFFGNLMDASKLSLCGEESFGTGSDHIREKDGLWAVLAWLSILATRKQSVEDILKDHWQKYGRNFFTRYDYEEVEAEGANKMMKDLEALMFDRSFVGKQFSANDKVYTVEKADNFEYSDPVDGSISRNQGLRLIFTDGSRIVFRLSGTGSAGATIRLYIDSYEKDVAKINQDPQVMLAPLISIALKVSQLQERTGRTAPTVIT
UniProt Q9HB19: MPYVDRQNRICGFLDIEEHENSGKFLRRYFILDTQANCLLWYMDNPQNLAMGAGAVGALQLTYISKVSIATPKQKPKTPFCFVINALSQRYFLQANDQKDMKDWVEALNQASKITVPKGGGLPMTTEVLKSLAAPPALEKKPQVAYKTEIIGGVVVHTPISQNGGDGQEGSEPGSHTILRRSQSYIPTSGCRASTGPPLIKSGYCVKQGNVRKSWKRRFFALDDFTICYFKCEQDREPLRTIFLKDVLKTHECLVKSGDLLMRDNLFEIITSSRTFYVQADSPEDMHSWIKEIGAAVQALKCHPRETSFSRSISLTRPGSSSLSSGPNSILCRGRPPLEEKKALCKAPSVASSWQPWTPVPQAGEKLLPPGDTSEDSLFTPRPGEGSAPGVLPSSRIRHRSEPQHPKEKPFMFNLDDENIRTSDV
UniProt O75925, whole entry, looked up: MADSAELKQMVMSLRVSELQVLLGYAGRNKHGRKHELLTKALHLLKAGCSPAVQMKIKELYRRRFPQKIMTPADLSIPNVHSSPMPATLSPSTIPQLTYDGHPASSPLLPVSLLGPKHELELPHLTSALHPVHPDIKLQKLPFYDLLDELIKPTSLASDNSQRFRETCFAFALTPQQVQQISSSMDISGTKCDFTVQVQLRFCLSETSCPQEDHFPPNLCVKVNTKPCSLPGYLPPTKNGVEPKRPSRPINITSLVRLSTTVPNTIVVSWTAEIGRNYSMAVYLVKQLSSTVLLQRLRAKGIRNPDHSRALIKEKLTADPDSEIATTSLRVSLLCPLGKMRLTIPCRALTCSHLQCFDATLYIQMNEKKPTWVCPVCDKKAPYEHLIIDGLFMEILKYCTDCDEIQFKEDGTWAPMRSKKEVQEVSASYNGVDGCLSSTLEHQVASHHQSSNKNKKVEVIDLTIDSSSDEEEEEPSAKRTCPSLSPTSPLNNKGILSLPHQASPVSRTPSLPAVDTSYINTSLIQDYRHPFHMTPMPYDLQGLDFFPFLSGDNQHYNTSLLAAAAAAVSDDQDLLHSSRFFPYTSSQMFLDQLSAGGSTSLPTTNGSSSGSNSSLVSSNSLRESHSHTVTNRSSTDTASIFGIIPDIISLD
UniProt Q8TBF5: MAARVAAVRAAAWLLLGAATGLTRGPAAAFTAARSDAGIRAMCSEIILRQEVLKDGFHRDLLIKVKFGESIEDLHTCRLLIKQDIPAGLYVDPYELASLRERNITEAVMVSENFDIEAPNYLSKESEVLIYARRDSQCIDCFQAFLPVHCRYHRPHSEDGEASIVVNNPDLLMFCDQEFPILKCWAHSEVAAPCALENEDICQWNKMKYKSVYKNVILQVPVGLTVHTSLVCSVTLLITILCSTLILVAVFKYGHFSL
UniProt P78364: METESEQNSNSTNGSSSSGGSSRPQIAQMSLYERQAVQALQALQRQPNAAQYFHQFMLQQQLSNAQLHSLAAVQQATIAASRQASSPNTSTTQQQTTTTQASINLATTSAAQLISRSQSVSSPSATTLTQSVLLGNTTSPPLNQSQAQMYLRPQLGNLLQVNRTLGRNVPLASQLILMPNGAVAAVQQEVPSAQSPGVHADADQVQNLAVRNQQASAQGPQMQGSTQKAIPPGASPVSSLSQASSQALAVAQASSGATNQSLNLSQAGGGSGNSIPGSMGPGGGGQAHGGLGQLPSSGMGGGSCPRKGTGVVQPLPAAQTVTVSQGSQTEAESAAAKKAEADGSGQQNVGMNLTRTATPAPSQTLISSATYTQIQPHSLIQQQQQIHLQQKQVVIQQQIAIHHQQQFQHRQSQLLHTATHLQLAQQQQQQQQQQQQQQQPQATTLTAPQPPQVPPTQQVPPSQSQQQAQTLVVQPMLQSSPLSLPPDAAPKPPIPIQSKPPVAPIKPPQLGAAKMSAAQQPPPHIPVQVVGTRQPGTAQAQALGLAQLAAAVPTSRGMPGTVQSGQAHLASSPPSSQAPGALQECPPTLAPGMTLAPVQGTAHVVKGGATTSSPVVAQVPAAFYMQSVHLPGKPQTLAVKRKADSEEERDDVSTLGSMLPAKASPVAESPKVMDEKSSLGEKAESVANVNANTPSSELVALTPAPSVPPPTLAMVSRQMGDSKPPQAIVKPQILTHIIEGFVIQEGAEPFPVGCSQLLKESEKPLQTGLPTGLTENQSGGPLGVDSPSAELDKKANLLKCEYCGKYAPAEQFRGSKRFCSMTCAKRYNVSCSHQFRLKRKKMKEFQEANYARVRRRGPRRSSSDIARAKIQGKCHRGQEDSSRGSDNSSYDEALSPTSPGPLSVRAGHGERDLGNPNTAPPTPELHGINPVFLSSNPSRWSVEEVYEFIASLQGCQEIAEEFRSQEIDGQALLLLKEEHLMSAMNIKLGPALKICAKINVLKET

Experiments:
Test in all cases: log2 fold change, soluble protein after heating vs DMSO (PISA); higher = thermal stabilisation; K562 lysate, 10 uM; active = over 0.2 and 3.5 SD of the protein, either way, in both replicates (recomputed)
[1] = compound: O=C(CCCCCCC(=O)Nc1ccccc1)NO [vorinostat]
Method in brief: (§1)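 Thermal stability, expressed as log-two fold change relative to solvent controls, is given from duplicates. Crude K562 extract in PBS pH 7.4 with 1 mM MgCl2, at 1 mg/mL protein, was treated with 10 μM compound for 30 min and heated in aliquots for 3 min across 48°C-58°C. After pooling, adjustment to 0.5% NP-40 at 4°C and centrifugation at 21,000xg for 90 min, supernatant protein was measured by TMTpro 16plex LC-MS/MS with channel sums equalised.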

[2] = compound: O=C(O)c1ccc2c(c1)nc(Nc1cccc(Cl)c1)c1ccncc12 [silmitasertib]
Method in brief: as §1

[3] = compound: O=C1NC(=O)C(c2cnc3ccccn23)=C1c1cn2c3c(cc(F)cc13)CN(C(=O)N1CCCCC1)CC2
Method in brief: as §1

[4] = compound: c1cn2cc(-c3ccc4cn[nH]c4c3)nc(Nc3ccc(N4CCOCC4)cc3)c2n1 [entospletinib]
Method in brief: as §1

[5] = compound: NCC(=O)Nc1ccc(-n2nc(C(F)(F)F)cc2-c2ccc3c(ccc4ccccc43)c2)cc1
Method in brief: as §1

Row | Target | log2 fold change [1] | log2 fold change [2] | log2 fold change [3] | log2 fold change [4] | log2 fold change [5]
1 | PHF19 (UniProt Q5T6S3) | inactive: -0.187 | inactive: 0.037 | inactive: -0.082 |  | 
2 | PIGBOS1, A0A0B4J2F0 |  |  | inactive: 0.015 |  | 
3 | PIEZO2 isoform 4 (UniProt Q9H5I5) | inactive: 0.102 | inactive: 0.035 | inactive: 0.031 | inactive: 0.029 | 
4 | PHLDB3 (UniProt Q6NSJ2) | inactive: 0.135 | inactive: 0.041 | inactive: 0.216 |  | 
5 | PITPNM1 (UniProt O00562) |  |  | inactive: -0.062 |  | 
6 | PICALM (UniProt H0YCY1) | inactive: 0.202 | inactive: -0.07 |  |  | 
7 | PLCB4 isoform 4 (UniProt Q15147) | inactive: 0.014 | inactive: -0.13 |  | inactive: 0.119 | 
8 | PGM1 isoform 2 (UniProt P36871) | inactive: 0.488 | inactive: -0.093 |  | inactive: -0.097 | 
9 | PGK2 (UniProt P07205) |  |  |  | inactive: -0.066 | inactive: -0.112
10 | PLEKHA2 (UniProt Q9HB19) | inactive: -0.184 | inactive: 0.07 | inactive: -0.098 |  | 
11 | PIAS1 isoform 2 (UniProt O75925) | inactive: -0.607 | inactive: 0.018 | inactive: 0 |  | 
12 | PIGX isoform 2 (UniProt Q8TBF5) |  |  | inactive: 0.068 | inactive: -0.051 | 
13 | PHC1 (UniProt P78364) |  |  | inactive: 0.151 | inactive: 0.073 | inactive: 0.042
14 | PIP5K1A (UniProt Q99755) | inactive: -0.014 | inactive: -0.033 | inactive: 0.047 |  | 
